According to patent US20170189504A1, “NOVEL PEPTIDES AND COMBINATION OF PEPTIDES FOR USE IN IMMUNOTHERAPY AGAINST VARIOUS CANCERS” (immatics biotechnologies GmbH, priority 2015, published 2017):
For some assays here: Expression values are those of the mRNA of the gene that encodes the peptide; a gene is named only where it was looked up.

Legend:
[1] = system: source genes (mRNA); assay: Expression profiling of source genes by in-house RNASeq of tumor and normal tissues (Table 18, FIG. 2); parameters: species or system human; key: very highly over-expressed in tumors compared to a panel of normal tissues (+++); highly over-expressed in tumors compared to a panel of normal tissues (++); over-expressed in tumors compared to a panel of normal tissues (+); conditions: source gene of peptide; for Expression score BRCA: BRCA tumors vs panel of normal tissues; for Expression score GBC_CCC: gallbladder adenocarcinoma and cholangiocarcinoma (N = 3) vs panel of normal tissues; for Expression score GB: glioblastoma (N = 24) vs panel of normal tissues; for Expression score NHL: non-Hodgkin lymphoma (N = 10) vs panel of normal tissues; for Expression score NSCLC: non-small cell lung cancer (N = 11) vs panel of normal tissues; for Expression score OC: ovarian cancer (N = 12) vs panel of normal tissues; for Expression score SCLC: small cell lung cancer (N = 10) vs panel of normal tissues; for Expression score UEC: uterine cancer (N = 10) vs panel of normal tissues; for Expression score AML: acute myeloid leukemia (N = 11) vs panel of normal tissues; for Expression score GC: gastric cancer (N = 11) vs panel of normal tissues
[2] = system: HLA-A*02; assay: Identification and relative LC-MS quantitation of HLA-A*02-presented tumor-associated peptides on tissue samples (presentation profiles, Tables 13A, 13B, 15, FIG. 1); parameters: species or system human; key to Presentation score NHL / Presentation score CLL / Presentation score BRCA / Presentation score AML / Presentation score GB / Presentation score NSCLC / Presentation score GBC_CCC / Presentation score UEC / Presentation score MEL / Presentation score OSCAR / Presentation score GC / Presentation score UBC / Presentation score OC / Presentation score RCC / Presentation score CRC / Presentation score PCA / Presentation score HCC / Presentation score PC / Presentation score SCLC: specifically presented on tumors (++++); very highly over-presented on tumors compared to a panel of normal tissues (+++); highly over-presented on tumors compared to a panel of normal tissues (++); over-presented on tumors compared to a panel of normal tissues (+); conditions: for Presentation score NHL: non-Hodgkin lymphoma (N = 18) vs panel of normal tissues (N = 262); for Peptide Presentation on cancer entities: HLA-A*02-binding tumor-associated peptides
[3] = system: source genes (mRNA); assay: Gene and exon expression of source genes, TCGA tumor samples compared with normal tissue samples (Lonsdale, 2013) (Table 17); parameters: species or system human; conditions: for Target coverage: over-expression category of source gene, LAML: Acute Myeloid Leukemia (N = 173); for Target coverage: over-expression category of source gene, ESCA: Esophageal cancer (N = 185)
[4] = Table 13A, cancer entities on which the peptide was found presented
[5] = cutoff more than 2-fold above highest 75% percentile of normal tissue samples

With “45: peptide found in BARD1 (gene looked up) (SLTEVSLPL; listed as Homo sapiens) [compound 45]” the “Expression score BRCA” value [1] was “+”, the “Expression score GBC_CCC” value [1] was “+” and the “Expression score GB” value [1] was “+”. The “Expression score NHL” value [1] was “++”, the “Expression score NSCLC” value [1] was “+” and the “Expression score OC” value [1] was “+”. The “Expression score SCLC” value [1] was “++”, the “Expression score UEC” value [1] was “+” and the “Presentation score AML” value ([2]; HLA-A*02 peptides, acute myeloid leukemia (N = 18) vs panel of normal tissues (N = 262)) was “++++”. The “Presentation score GBC_CCC” value ([2]; HLA-A*02 peptides, gallbladder adenocarcinoma and cholangiocarcinoma (N = 6) vs panel of normal tissues (N = 262)) was “++++”, the “Presentation score NHL” value ([2]; HLA-A*02 peptides) was “++++” and the “Presentation score OC” value ([2]; HLA-A*02 peptides, ovarian cancer (N = 20) vs panel of normal tissues (N = 262)) was “++++”. For the same substance, the “Peptide Presentation on cancer entities” value [2, 4] was “OC, GBC_CCC, AML, NHL”, the “Peptide Presentation on cancer entities” value ([2]; Table 13B, presentation on additional cancer entities) was “NSCLC, CRC, HNSCC” and the “Target coverage: over-expression category of source gene, LAML” value [3, 5] was “C (>=5% of tumors above the cutoff, but <20%)”. The “Target coverage: over-expression category of source gene, ESCA” value [3, 5] was “C (>=5% of tumors above the cutoff, but <20%)”.
With “290: peptide found in BUB1B (gene looked up) (KIVDFSYSV; listed as Homo sapiens) [compound 290]” the “Expression score BRCA” value [1] was “+”, the “Expression score AML” value [1] was “+” and the “Expression score CRC” value ([1]; colorectal cancer (N = 20) vs panel of normal tissues) was “+”. For the same substance, the “Expression score OSCAR” value ([1]; esophageal cancer incl. gastric-esophageal junction (N = 11) vs panel of normal tissues) was “++”, the “Expression score GC” value [1] was “+” and the “Expression score GB” value [1] was “+”. For the same substance, the “Expression score NHL” value [1] was “+++”, the “Expression score NSCLC” value [1] was “+” and the “Expression score OC” value [1] was “++”. For the same substance, the “Expression score SCLC” value [1] was “+++”, the “Expression score UBC” value ([1]; urinary bladder cancer (N = 10) vs panel of normal tissues) was “+” and the “Expression score UEC” value [1] was “+”. For the same substance, the “Presentation score BRCA” value ([2]; HLA-A*02 peptides, breast cancer (N = 17) vs panel of normal tissues (N = 262)) was “++”, the “Presentation score MEL” value ([2]; HLA-A*02 peptides, melanoma (N = 7) vs panel of normal tissues (N = 262)) was “++” and the “Peptide Presentation on cancer entities” value [2, 4] was “GB, GC, NSCLC, HCC, OSCAR, OC, SCLC, UBC, UEC, BRCA, MEL, CRC, AML, NHL”. The “Over-expression category of source gene (target coverage), BLCA” value ([3]; BLCA = Bladder urothelial carcinoma (N = 408), same cutoff) was “A (>=50% of tumors above the cutoff)”, the “Over-expression category of source gene (target coverage), BRCA” value ([3]; BRCA = Breast cancer (N = 1104), tumors more than 2-fold above highest 75% percentile of normal tissues) was “A (>=50% of tumors above the cutoff)” and the “Over-expression category of source gene (target coverage), CHOL” value ([3]; CHOL = Cholangiocarcinoma (N = 36), same cutoff) was “B (>= 20% of tumors above the cutoff, but <50%)”. The “Over-expression category of source gene (target coverage), COAD” value ([3]; COAD = Colon and rectal adenocarcinoma (N = 462), same cutoff) was “A (>=50% of tumors above the cutoff)”, the “Over-expression category of source gene (target coverage), DLBC” value ([3]; DLBC = Lymphoid neoplasm diffuse large B-cell lymphoma (N = 48), same cutoff) was “A (>=50% of tumors above the cutoff)” and the “Over-expression category of source gene (target coverage), ESCA” value ([3]; ESCA = Esophageal cancer (N = 185), same cutoff) was “A (>=50% of tumors above the cutoff)”. The “Over-expression category of source gene (target coverage), GBM” value ([3]; GBM = Glioblastoma multiforme (N = 169), same cutoff) was “B (>= 20% of tumors above the cutoff, but <50%)”, the “Over-expression category of source gene (target coverage), LAML” value ([3]; LAML = Acute Myeloid Leukemia (N = 173), same cutoff) was “A (>=50% of tumors above the cutoff)” and the “Over-expression category of source gene (target coverage), LGG” value ([3]; LGG = Lower grade glioma (N = 534), same cutoff) was “C (>=5% of tumors above the cutoff, but <20%)”. The “Over-expression category of source gene (target coverage), LIHC” value ([3]; LIHC = Liver hepatocellular carcinoma (N = 374), same cutoff) was “C (>=5% of tumors above the cutoff, but <20%)”, the “Over-expression category of source gene (target coverage), LUAD” value ([3]; LUAD = Lung adenocarcinoma (N = 517), same cutoff) was “B (>= 20% of tumors above the cutoff, but <50%)” and the “Over-expression category of source gene (target coverage), LUSC” value ([3]; LUSC = Lung squamous cell carcinoma (N = 503), same cutoff) was “A (>=50% of tumors above the cutoff)”. For the same substance, the “Over-expression category of source gene (target coverage), OV” value ([3]; OV = Ovarian serous cystadenocarcinoma (N = 309), same cutoff) was “A (>=50% of tumors above the cutoff)”, the “Over-expression category of source gene (target coverage), PAAD” value ([3]; PAAD = Pancreatic ductal adenocarcinoma (N = 179), same cutoff) was “C (>=5% of tumors above the cutoff, but <20%)” and the “Over-expression category of source gene (target coverage), READ” value ([3]; READ = Colon and rectal adenocarcinoma (N = 167), same cutoff) was “A (>=50% of tumors above the cutoff)”. For the same substance, the “Over-expression category of source gene (target coverage), SKCM” value ([3]; SKCM = Skin cutaneous melanoma (N = 473), same cutoff) was “A (>=50% of tumors above the cutoff)”, the “Over-expression category of source gene (target coverage), STAD” value ([3]; STAD = Stomach adenocarcinoma (N = 415), same cutoff) was “A (>=50% of tumors above the cutoff)” and the “Over-expression category of source gene (target coverage), UCEC” value ([3]; UCEC = Uterine corpus endometrial carcinoma (N = 546), same cutoff) was “A (>=50% of tumors above the cutoff)”.
With “99: peptide found in SMCHD1 (gene looked up) (YLLQSVNQLLL; listed as Homo sapiens) [compound 99]” the “Expression score AML” value [1] was “+”, the “Expression score CLL” value ([1]; chronic lymphocytic leukemia (N = 10) vs panel of normal tissues) was “+++” and the “Expression score GBC_CCC” value [1] was “+”. The “Expression score GC” value [1] was “+”, the “Expression score GB” value [1] was “+” and the “Expression score NHL” value [1] was “+”. For the same substance, the “Expression score NSCLC” value [1] was “+”, the “Expression score OC” value [1] was “+” and the “Expression score PC” value ([1]; pancreatic cancer (N = 26) vs panel of normal tissues) was “+”. For the same substance, the “Expression score PCA” value ([1]; prostate cancer and benign prostate hyperplasia (N = 5) vs panel of normal tissues) was “+”, the “Expression score SCLC” value [1] was “++” and the “Expression score UEC” value [1] was “+”. The “Presentation score CLL” value ([2]; HLA-A*02 peptides, chronic lymphocytic leukemia (N = 17) vs panel of normal tissues (N = 262)) was “+++”, the “Presentation score NHL” value ([2]; HLA-A*02 peptides) was “+++” and the “Peptide Presentation on cancer entities” value [2, 4] was “NSCLC, CLL, NHL”. The “Target coverage: over-expression category of source gene, LAML” value [3, 5] was “A (>=50% of tumors above the cutoff)”, the “Target coverage: over-expression category of source gene, BRCA” value ([3]; Breast cancer (N = 1104), cutoff more than 2-fold above highest 75% percentile of high and medium risk normal tissue samples) was “C (>=5% of tumors above the cutoff, but <20%)” and the “Target coverage: over-expression category of source gene, ESCA” value [3, 5] was “B (>= 20% of tumors above the cutoff, but <50%)”. For the same substance, the “Target coverage: over-expression category of source gene, STAD” value ([3]; Stomach adenocarcinoma (N = 415), cutoff more than 2-fold above highest 75% percentile of normal tissue samples) was “B (>= 20% of tumors above the cutoff, but <50%)”.
